Data from the supplement of paper PMC12819154, “High-throughput peptide-centric local stability assay extends protein–ligand identification to membrane proteins, tissues and bacteria” (Nature Structural & Molecular Biology, 2025).
Some of the results follow. Most entries show no effect beyond the scatter of the controls.

The chains behind the UniProt entries cited, without tags or fusion partners. Where a name states a change or a piece, a line headed by the entry shows the natural chain unless it says otherwise.
UniProt P55084: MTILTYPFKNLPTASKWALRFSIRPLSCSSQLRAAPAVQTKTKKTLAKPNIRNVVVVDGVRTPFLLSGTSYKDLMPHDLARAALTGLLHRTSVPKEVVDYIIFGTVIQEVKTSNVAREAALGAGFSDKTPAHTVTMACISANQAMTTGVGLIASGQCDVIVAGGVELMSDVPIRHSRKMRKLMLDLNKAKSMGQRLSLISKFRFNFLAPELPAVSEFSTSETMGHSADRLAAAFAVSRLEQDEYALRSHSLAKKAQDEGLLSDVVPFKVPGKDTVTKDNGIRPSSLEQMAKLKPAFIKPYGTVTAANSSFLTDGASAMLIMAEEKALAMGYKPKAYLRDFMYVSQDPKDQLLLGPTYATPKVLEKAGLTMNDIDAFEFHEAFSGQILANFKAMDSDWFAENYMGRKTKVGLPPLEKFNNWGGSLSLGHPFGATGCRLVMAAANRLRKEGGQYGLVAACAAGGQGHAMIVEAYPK
UniProt P54886: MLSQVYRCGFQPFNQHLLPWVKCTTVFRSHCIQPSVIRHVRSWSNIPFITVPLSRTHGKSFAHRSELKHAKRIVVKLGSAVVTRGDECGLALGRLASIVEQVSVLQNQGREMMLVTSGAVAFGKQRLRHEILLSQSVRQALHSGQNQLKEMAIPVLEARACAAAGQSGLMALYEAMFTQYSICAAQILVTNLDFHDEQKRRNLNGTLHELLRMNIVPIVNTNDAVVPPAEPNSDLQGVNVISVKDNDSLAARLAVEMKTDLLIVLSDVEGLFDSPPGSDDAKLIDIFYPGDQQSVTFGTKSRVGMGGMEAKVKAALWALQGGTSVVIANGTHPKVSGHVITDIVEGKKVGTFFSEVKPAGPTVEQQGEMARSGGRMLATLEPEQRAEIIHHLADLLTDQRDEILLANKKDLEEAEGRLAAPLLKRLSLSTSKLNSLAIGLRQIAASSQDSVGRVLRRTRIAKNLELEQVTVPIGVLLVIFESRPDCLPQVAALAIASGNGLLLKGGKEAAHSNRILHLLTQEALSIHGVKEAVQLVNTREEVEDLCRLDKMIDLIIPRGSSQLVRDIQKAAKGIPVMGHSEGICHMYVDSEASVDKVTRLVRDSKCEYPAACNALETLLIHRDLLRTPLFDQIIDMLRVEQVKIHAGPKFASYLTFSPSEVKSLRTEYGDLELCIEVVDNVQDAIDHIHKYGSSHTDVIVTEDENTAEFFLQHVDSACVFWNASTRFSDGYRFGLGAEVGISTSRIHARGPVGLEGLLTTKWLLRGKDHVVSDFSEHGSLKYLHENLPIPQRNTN
UniProt P57086: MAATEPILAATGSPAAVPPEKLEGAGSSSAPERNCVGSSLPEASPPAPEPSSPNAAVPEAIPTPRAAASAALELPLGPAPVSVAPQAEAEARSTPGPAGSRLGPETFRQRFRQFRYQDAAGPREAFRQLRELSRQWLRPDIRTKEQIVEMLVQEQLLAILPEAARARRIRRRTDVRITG
UniProt P79522: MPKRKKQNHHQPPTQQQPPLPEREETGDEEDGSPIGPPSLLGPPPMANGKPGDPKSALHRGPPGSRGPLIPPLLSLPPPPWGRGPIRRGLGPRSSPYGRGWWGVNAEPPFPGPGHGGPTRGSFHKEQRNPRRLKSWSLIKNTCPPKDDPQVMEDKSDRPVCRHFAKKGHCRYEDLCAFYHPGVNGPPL
UniProt P57682: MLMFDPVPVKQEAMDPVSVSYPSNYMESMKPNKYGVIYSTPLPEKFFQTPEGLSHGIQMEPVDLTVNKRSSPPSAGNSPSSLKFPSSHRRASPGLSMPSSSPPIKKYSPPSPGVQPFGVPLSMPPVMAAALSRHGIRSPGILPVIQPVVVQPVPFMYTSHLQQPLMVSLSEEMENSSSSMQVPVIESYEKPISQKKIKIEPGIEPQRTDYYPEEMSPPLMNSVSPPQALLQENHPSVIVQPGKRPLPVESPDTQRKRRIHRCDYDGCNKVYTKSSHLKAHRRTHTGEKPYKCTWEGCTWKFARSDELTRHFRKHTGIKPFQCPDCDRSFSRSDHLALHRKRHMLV
UniProt P57678: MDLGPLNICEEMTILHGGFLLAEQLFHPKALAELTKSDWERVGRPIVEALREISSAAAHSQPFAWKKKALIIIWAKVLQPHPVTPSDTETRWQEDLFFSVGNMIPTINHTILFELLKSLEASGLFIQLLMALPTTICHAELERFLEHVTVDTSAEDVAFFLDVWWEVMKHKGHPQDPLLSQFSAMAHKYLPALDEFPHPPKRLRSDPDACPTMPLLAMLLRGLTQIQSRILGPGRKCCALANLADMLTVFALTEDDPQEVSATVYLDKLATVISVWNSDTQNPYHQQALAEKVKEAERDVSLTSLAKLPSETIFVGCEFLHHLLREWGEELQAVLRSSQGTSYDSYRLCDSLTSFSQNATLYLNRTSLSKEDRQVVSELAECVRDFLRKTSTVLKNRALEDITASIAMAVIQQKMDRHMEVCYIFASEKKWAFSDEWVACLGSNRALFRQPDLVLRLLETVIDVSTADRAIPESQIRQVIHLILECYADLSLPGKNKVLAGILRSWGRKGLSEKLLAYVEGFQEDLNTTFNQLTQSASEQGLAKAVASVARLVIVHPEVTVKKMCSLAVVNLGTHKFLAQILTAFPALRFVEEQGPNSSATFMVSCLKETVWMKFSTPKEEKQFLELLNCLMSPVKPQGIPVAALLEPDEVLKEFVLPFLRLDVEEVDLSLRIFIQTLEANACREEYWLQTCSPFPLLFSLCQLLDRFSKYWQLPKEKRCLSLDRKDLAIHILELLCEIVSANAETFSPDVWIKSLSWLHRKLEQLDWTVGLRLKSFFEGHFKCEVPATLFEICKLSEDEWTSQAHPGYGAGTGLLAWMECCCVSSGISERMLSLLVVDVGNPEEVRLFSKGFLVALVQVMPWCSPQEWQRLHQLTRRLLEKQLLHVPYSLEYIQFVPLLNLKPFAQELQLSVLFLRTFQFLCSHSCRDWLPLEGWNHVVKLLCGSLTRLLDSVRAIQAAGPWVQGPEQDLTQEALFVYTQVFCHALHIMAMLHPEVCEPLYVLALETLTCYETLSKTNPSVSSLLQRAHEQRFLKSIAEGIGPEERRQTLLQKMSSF

compound: Cc1nc(Nc2ncc(C(=O)Nc3c(C)cccc3Cl)s2)cc(N2CCN(CCO)CC2)n1 [dasatinib]; assay: log2 fold change of tryptic peptide abundance, ligand vs vehicle (limited proteolysis) (log2 ratio); higher = more trypsin-susceptible (destabilized); details: ligand concentration: 5 uM; sample: K562 cleared lysate

Row | Target | log2 fold change
1 | HADHB (peptide sequence: TKVGLPPLEK, peptide start residue: 407) (UniProt P55084) | -0.393
2 | MRPS25 (peptide sequence: KFVFFNIPQIQYK, peptide start residue: 46) (UniProt P82663) | 0.382
3 | ALDH18A1 (peptide sequence: FGLGAEVGISTSR, peptide start residue: 733) (UniProt P54886) | -0.265
4 | SCAND1 (peptide sequence: YQDAAGPR, peptide start residue: 116) (UniProt P57086) | 0.0635
5 | PRR3 (peptide sequence: NTCPPKDDPQVMEDK, peptide start residue: 141) (UniProt P79522) | -0.0686
6 | KLF3 (peptide sequence: THTGEKPYK, peptide start residue: 492) (UniProt P57682) | -0.189
7 | GEMIN4 (peptide sequence: EWGEELQAVLR, peptide start residue: 326) (UniProt P57678) | 0.0767
8 | UniProt P63272 (peptide sequence: VSNFKPGVYAVSVTGRLPQGIVR, peptide start residue: 77) | 0.102
